Earlier results on one compound are cited in article PMC7532004, “Site-specific effects of neurosteroids on GABAA receptor activation and desensitization” (eLife, 2020).

The target in this data set is α1β2γ2 receptors. The conditions noted are these: read-out: Estimated GABA Kd, ref Chang et al., 2002, cited from earlier work.

Where two headings read alike, the source gives them in different places.

As a reminder, the Kd is the concentration at which binding is half-saturated. On to `NCCCC(=O)O` [GABA], for which the Kd is, setting by setting: (activated α1β2γ2 receptors) 120 nM; (desensitized α1β2γ2 receptors) 40 nM; (resting α1β2γ2 receptors) 78500 nM.
